In publication PMC3967948:

The sequences below were run on MBP-Tbx3 (purified) (assay: EMSA). Conditions: recombinant protein; protein details: MBP.

Sequence | binding result
GGUGGUGGUGGUGGUGGU [poly-GGU] | binds

Same assay, conditions: recombinant protein; protein details: MBP; label: radiolabeled

Sequence | binding result
AAAAAAAAAAAAAAAAAA [poly-A] | no binding
AAUAAUAAUAAUAAUAAU [poly-AAU] | no binding
ACACACACACACACACAC [poly-AC] | no binding
AGAGAGAGAGAGAGAGAG [poly-AG] | binds
AUAUAUAUAUAUAUAUAU [poly-AU] | no binding
CUCUCUCUCUCUCUCUCU [poly-CU] | no binding
GCCGCCGCCGCCGCCGCC [poly-GCC] | no binding
GCGCGCGCGCGCGCGCGC [poly-GC] | no binding
GUGUGUGUGUGUGUGUGU [poly-GU] | binds
GUUGUUGUUGUUGUUGUU [poly-GUU] | no binding
UUUUUUUUUUUUUUUUUU [poly-U] | no binding

The exact form of at least one protein or probe is not confirmed. No signal at the amounts used counts as a negative. At least one verdict rests on a figure or table, not on a statement of the authors.
